Assay results taken from patent US20160046678A1 (ZYNGENIA, published 2016).
No constants are given. Whether binding was seen depends on the method and setting. Some binding calls cover weakened binding; strength is not graded here.

The chains behind the UniProt entries cited, without tags or fusion partners. Residues count along the entry.
UniProt P05231, residues 30-212: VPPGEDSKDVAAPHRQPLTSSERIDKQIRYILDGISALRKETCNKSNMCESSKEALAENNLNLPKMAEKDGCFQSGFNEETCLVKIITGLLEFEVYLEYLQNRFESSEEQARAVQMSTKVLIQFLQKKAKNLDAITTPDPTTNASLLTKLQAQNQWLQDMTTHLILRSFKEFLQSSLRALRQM

These binders were tested against IL6 (UniProt P05231) (assay: MRD identification, Example 48).

binding, binds:
FEDSCAWDPLLMACSNPI [ILB310]
LNLLCAWDPLLMSCIETL [ILB297]
LDFSFFDCSWDPLLMRCS [ILB305]
NAPVWVECMWDPLLMSCV [ILB307]
QSNDCAWDPLLMQCLNSL [ILB287]
LYGECAWDPLLMRCQPYY [ILB313]
ALVNRVECSWDPLLMKCS [ILB280]
KDYFHQYCIWDPLTMNCA [ILB272]
DDFLCSWDPLLMDCMVYP [ILB309]
NLDVTPYCYWDPLRMVCY [ILB281]
PRFLIYFCNWDPLLMMCK [ILB282]
FRMKKVDCCWDPLLMNCR [ILB306]
VIMNQFFCFWDPLLMRCM [ILB256]
LYMICTWDPLLMDCREDR [ILB296]
GSTCCVWDPLLMKCMSPV [ILB299]
ALALVASVTGTRYQCRV [ILB269]
LAGSVSGTLLQQTVQRT [ILB311]
WEHGCMWDPLLMQCINRS [ILB298]
WFLFPWTCPWDPLLMECI [ILB303]
FSSAYSGCYWDPLLMECI [ILB257]
NRYERFMCFWDPLLMMCS [ILB255]
HYTNCVWDPLLMRCYEFA [ILB273]
DFTFCAWDPLLMACNDQF [ILB277]
STVGCFWDPLLMDCRSMV [ILB262]
FHESLLPCFWDPLLMTCQ [ILB295]
MTSHCLWDPLLMVCVNHE [ILB288]
QRNYSEFCHWDPLLMLCQ [ILB279]
WSSGLYGCYWDPLLMLCK [ILB258]
FSSVTSACAWDPLIMRCI [ILB268]
FEAWCVWDPLLMNCVTYT [ILB254]
QVSLCFWDPLMMTCSVPF [ILB252]
GSKRFGICFWDPLLMDCA [ILB314]
ISMPCSWDPLLMNCAKWP [ILB253]
GLYNCTWDPLLMRCSESI [ILB300]
YYPITLDCHWDPLLMRCL [ILB283]
SGVSCFWDPLRMICYILP [ILB264]
WLFNGVDCLWDPLLMDCI [ILB294]
APQQCNWDPLLMNCVKYV [ILB266]
YTNNMETCAWDPLLMMCY [ILB291]
SVQYETPCYWDPLRMQCQ [ILB304]
MHGYCTWDPLLMRCSNYI [ILB261]
YLSSCLWDPLLMRCTKLM [ILB265]
LHLGEWDCYWDPLLMICR [ILB293]
LVSFCAWDPLLMNCMWPM [ILB312]
DNWSISSCYWDPLLMNCP [ILB302]
YIEINHPCHWDPLLMDCT [ILB284]
WLSTCLWDPLLMQCIESE [ILB263]
FDTFCFWDPLLMDCAAPT [ILB286]
TKNVTYECMWDPLLMVCT [ILB270]
HFTFCAWDPLLMQCGIDS [ILB289]
GYAWCFWDPLLMKCTWQV [ILB308]
PFYEYTCCPWDPLLMNCL [ILB271]
SYVTFLSCHWDPLRMQCI [ILB267]
AVGWCPWDPLLMNCMGRN [ILB274]
MVFYCYWDPLLMLCHDQT [ILB250]
ITSLERSCMWDPLLMLCS [ILB260]
DGMICLWDPIRMDCYYTE [ILB276]
FSGKQMMCAWDPLMMQCA [ILB292]
KSTALITCIWDPLLMQCR [ILB290]
VASVCLWDPLLMQCWSHY [ILB275]
RSSADWSCLWDPLLMQCM [ILB259]
LVDVCSWDPLLMNCRLAN [ILB285]
DWEECVWDPLLMMCGISY [ILB278]
YVAVGPSCLWDPLLMMCA [ILB315]
